No constants are given. Whether binding was seen depends on the method and setting. Binding seen in cells or lysates may run through a third protein. For some assays here: A result given as binding can be weak or reduced; the word gives no strength. For some assays here: Sequences can lack the tags named with a protein.

Amino acid sequences for entries named in this document (tags omitted). A change or cut given only in a name is not applied to a line headed by its entry.
UniProt Q9SZR6: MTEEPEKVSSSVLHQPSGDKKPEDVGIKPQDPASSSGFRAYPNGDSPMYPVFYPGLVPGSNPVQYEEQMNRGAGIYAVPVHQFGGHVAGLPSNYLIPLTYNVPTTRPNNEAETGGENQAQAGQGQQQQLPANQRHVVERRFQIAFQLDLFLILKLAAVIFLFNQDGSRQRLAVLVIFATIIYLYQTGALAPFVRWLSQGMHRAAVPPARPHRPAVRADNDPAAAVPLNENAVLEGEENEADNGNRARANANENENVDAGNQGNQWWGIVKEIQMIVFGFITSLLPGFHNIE
UniProt F4JX49: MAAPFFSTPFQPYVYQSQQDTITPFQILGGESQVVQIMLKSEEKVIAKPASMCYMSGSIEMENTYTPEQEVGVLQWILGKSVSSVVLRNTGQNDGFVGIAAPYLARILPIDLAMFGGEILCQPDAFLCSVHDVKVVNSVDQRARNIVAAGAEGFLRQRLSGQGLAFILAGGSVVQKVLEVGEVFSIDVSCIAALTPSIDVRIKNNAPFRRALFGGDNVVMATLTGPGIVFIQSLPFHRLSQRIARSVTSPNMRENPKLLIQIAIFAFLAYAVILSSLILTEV
UniProt F4JP55: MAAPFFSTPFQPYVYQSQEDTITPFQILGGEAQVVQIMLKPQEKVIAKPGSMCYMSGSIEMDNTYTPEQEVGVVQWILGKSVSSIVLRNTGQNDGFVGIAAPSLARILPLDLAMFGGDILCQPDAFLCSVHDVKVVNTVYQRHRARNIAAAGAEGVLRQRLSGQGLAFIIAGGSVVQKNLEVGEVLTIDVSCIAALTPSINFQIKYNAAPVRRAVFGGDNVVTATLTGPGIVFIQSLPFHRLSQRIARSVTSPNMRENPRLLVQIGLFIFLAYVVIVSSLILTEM

Experiment [1] deals with EBS7 (EMS-mutagenized Bri1 Suppressor7) (Arabidopsis (endogenous in seedlings)) (UniProt Q9SZR6). The experiment is described as follows: co-IP; anti-EBS7 antibody and protein-A/G-agarose, total proteins of 10-day-old wild-type Arabidopsis seedlings (also of the hrd1a hrd1b bri1-9 mutant); 50 mM Tris-HCl pH 8.0, 150 mM NaCl, 5 mM EDTA, 0.1% Triton X-100, 0.2% Nonidet P-40, 4 °C, 8 h; immunoblot with anti-EBS7, anti-PAWH, anti-Hrd1a.

For experiment [2], the target named is T1, Hrd1a-cYFP (Arabidopsis) (UniProt Q9LW77).
T1 sequence: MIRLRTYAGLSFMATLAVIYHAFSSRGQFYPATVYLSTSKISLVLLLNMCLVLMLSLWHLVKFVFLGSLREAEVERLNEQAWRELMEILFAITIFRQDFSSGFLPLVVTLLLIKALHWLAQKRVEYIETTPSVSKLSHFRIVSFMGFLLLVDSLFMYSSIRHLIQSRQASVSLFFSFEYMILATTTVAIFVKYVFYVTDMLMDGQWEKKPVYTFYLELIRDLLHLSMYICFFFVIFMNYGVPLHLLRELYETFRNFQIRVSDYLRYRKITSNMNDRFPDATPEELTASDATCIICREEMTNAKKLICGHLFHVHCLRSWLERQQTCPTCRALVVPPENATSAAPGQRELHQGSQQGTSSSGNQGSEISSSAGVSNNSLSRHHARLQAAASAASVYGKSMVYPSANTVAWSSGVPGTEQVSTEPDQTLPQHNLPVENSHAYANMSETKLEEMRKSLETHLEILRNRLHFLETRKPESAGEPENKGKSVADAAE
Description: split reporter; BiFC with split YFP, transient co-expression in tobacco (Nicotiana benthamiana) leaf epidermal cells, confocal microscopy two days after infiltration.

Regarding “Protein Associated With Hrd1-2 (PAWH2) (from UniProt F4JX49)”, the binding result in experiment [1] is listed as “binds”.
In the case of nYFP-PAWH2 (Arabidopsis), the binding entry in experiment [2] is recorded as “no binding”.
For the molecule “Protein Associated With Hrd1-1 (PAWH1) (from UniProt F4JP55)”, the binding result in experiment [1] is given as “binds”.
In the case of nYFP-PAWH1 (Arabidopsis), the binding result in experiment [2] was “no binding”.

B1: Hrd1a (protein, UniProt Q9LW77 1-492)
chain: T1 sequence
On to B1, for which the binding result in experiment [1] was “binds”.
